The text below walks through data of article PMC9917220.

The series relates to human thrombin (Homo sapiens). The experiment in a line: CD. The note with it: 0.5 uM thrombin, 5 uM DNA, slight spectral change; Binding Buffer: 50 mM Tris-HCl, 100 mM NaCl, 1 mM MgCl2, pH not stated; folded or branched DNA.

The comparison behind a weaker result is the experiment's own reference, which may not be listed here.

For the sequence “TACAGGCAGTAAGGCCGTGTCATCAGGATGGGCACTTTCCTAGGGCAGGTT [51mer AS2-3]”, the binding result is “binds more weakly”.
